# Where “and” joins values, the source holds several entries; their conditions need not be identical. Identical values can stand only once. Further values from the same series stand in other lists.
# Test system: anesthetized PAH minipigs
# Assay: PAH minipig, intratracheal application of dry powder formulations and of different hydrates (PAP, BP)
# Type: in vivo, Göttingen Minipigs
# Conditions: 375 μg/kg i.t.; for PAP(mean) / BP (mean): per animal; for BP / PAP: % vs. prevalues, each animal
# Method: Healthy Göttingen Minipigs® Ellegaard (Ellegaard, Denmark) of both sexes and having a weight of 2-6 kg were used. The animals were sedated by i.m. administration of about 25 mg/kg ketamine and about 10 mg/kg azaperone. Anaesthesia was initiated by i.v. administration of about 2 mg/kg ketamine and about 0.3 mg/kg midazolam. Maintenance of anaesthesia was by i.v. administration of about 7.5-30 mg/kg/h ketamine and about 1-4 mg/kg/h midazolam (rate of infusion 1-4 ml/kg/h) and about 150 μg/kg/h pancuronium bromide (for example Pancuronium-Actavis). After intubation, the animals were ventilated by the ventilator at a constant respiratory volume (10-12 ml/kg, 35 breaths/min; Avea®, Viasys Healthcare, USA, or Engström Carestation, GE Healthcare, Freiburg, Germany) such that an end-tidal CO2 concentration of about 5% was achieved. Ventilation was performed with room air, enriched with about 40% oxygen (normoxia). For the measurement of the haemodynamic parameters such as pulmonary arterial pressure (PAP), blood pressure (BP) and heart rate (HR), catheters were inserted into the carotid artery to measure the blood pressure, and a Swan-Ganz® catheter was introduced in a flow-directed manner via the jugular vein into the pulmonary artery. The haemodynamic signals were recorded and evaluated by means of pressure transducers (Combitransducer, B. Braun, Melsungen, Germany)/amplifiers and Ponemah® as data acquisition software.
# About 0.3-0.75 μg/kg/min of 9,11-didesoxy-9α,11α-epoxymethanoprostaglandine F2α (U-44069; Sigma, cat. no. D0400, or Cayman Chemical Company, cat. no. 16440), dissolved in physiological saline, were infused to achieve an increase of the mean pulmonary arterial pressure to values of over 25 mmHg.
# After characterization of the effects of comparative example 11 after nebulization of compound solutions, in a further step the effects of crystalline forms of comparative example 11, e.g. sesquihydrate, e.g. example 6e on PAP and BP after inhaled application of different dry powder lactose formulations (table 52) were studied in anesthetized PAH minipigs.
# As reference pure Lactose vehicle was applied in the beginning of each experiment.
structure (smiles),measurement,setting,value
"O.O.O.O=C(O)c1ccc(CCN(CCc2ccccc2OCc2ccc(-c3ccc(C(F)(F)F)cc3)cc2Cl)[C@H]2CCCc3nc(C(=O)O)ccc32)cc1.O=C(O)c1ccc(CCN(CCc2ccccc2OCc2ccc(-c3ccc(C(F)(F)F)cc3)cc2Cl)[C@H]2CCCc3nc(C(=O)O)ccc32)cc1 [Example 6e, (5S)—{[2-(4-Carboxyphenyl)ethyl][2-(2-{[3-chloro-4′-(trifluoromethyl)biphenyl-4-yl]methoxy}phenyl)-ethyl]amino}-5,6,7,8-tetrahydroquinoline-2-carboxylic Acid Sesquihydrate]",PAP(mean),"time 0, Sesquihydrate",37.5 mmHg
same,BP (mean),"time 10, Sesquihydrate",108 mmHg and 119 mmHg
same,PAP(mean),"time 10, Sesquihydrate",42.0 mmHg and 37.3 mmHg and 38.6 mmHg
same,BP (mean),time 20,99 mmHg
same,BP (mean),"time 20, Sesquihydrate",109 mmHg and 118 mmHg
same,PAP(mean),"time 20, Sesquihydrate",41.4 mmHg and 37.4 mmHg and 39.8 mmHg
same,BP (mean),time 30,100 mmHg
same,BP (mean),"time 30, Sesquihydrate",107 mmHg and 118 mmHg
same,PAP(mean),"time 30, Sesquihydrate",41.4 mmHg and 36.8 mmHg and 41.2 mmHg
same,BP (mean),time 40,100 mmHg
same,BP (mean),"time 40, Sesquihydrate",109 mmHg and 118 mmHg
same,PAP(mean),"time 40, Sesquihydrate",41.0 mmHg and 37.4 mmHg and 41.3 mmHg
same,BP (mean),"time 50, Sesquihydrate",101 mmHg and 114 mmHg and 119 mmHg
same,PAP(mean),"time 50, Sesquihydrate",40.9 mmHg and 38.1 mmHg and 40.8 mmHg
same,BP (mean),time 60,102 mmHg
same,BP (mean),"time 60, Sesquihydrate",116 mmHg and 118 mmHg
same,PAP(mean),"time 60, Sesquihydrate",40.4 mmHg and 39.5 mmHg and 40.7 mmHg
same,BP (mean),time 70,99 mmHg
same,BP (mean),"time 70, Sesquihydrate",111 mmHg and 117 mmHg
same,PAP(mean),"time 70, Sesquihydrate",40.7 mmHg and 38.7 mmHg and 39.6 mmHg
same,BP (mean),"time 80, Sesquihydrate",101 mmHg and 112 mmHg and 116 mmHg
same,PAP(mean),"time 80, Sesquihydrate",36.5 mmHg and 37.6 mmHg and 35.4 mmHg
same,BP (mean),"time 90, Sesquihydrate",101 mmHg and 114 mmHg and 115 mmHg
same,PAP(mean),"time 90, Sesquihydrate",34.3 mmHg and 36.4 mmHg and 30.8 mmHg
same,BP (mean),"time 100, Sesquihydrate",101 mmHg and 114 mmHg and 115 mmHg
same,PAP(mean),"time 100, Sesquihydrate",32.3 mmHg and 35.7 mmHg and 28.6 mmHg
same,BP (mean),"time 110, Sesquihydrate",99 mmHg and 120 mmHg and 114 mmHg
same,PAP(mean),"time 110, Sesquihydrate",30.8 mmHg and 35.0 mmHg and 27.5 mmHg
same,BP (mean),time 120,99 mmHg
same,BP (mean),"time 120, Sesquihydrate",121 mmHg and 114 mmHg
same,PAP(mean),"time 120, Sesquihydrate",30.3 mmHg and 29.0 mmHg and 26.6 mmHg
same,BP (mean),time 130,100 mmHg
same,BP (mean),"time 130, Sesquihydrate",122 mmHg and 114 mmHg
same,PAP(mean),"time 130, Sesquihydrate",29.0 mmHg and 30.3 mmHg and 26.9 mmHg
same,BP (mean),"time 140, Sesquihydrate",101 mmHg and 121 mmHg and 115 mmHg
same,PAP(mean),"time 140, Sesquihydrate",28.0 mmHg and 28.3 mmHg and 25.1 mmHg
same,BP (mean),time 150,99 mmHg
same,BP (mean),"time 150, Sesquihydrate",119 mmHg and 115 mmHg
same,PAP(mean),"time 150, Sesquihydrate",25.8 mmHg and 30.8 mmHg and 25.3 mmHg
same,BP (mean),time 160,99 mmHg
same,BP (mean),"time 160, Sesquihydrate",123 mmHg and 114 mmHg
same,PAP(mean),"time 160, Sesquihydrate",25.1 mmHg and 30.8 mmHg and 23.9 mmHg
same,BP (mean),time 170,98 mmHg
same,BP (mean),"time 170, Sesquihydrate",116 mmHg and 113 mmHg
same,PAP(mean),"time 170, Sesquihydrate",25.5 mmHg and 30.6 mmHg and 24.6 mmHg
same,BP (mean),time 180,99 mmHg
same,BP (mean),"time 180, Sesquihydrate",117 mmHg and 116 mmHg
same,PAP(mean),"time 180, Sesquihydrate",25.0 mmHg and 30.8 mmHg and 24.2 mmHg
same,BP (mean),time 190,97 mmHg
same,BP (mean),"time 190, Sesquihydrate",123 mmHg and 114 mmHg
same,PAP(mean),"time 190, Sesquihydrate",24.3 mmHg and 32.9 mmHg and 23.6 mmHg
same,BP (mean),time 200,97 mmHg
same,BP (mean),"time 200, Sesquihydrate",119 mmHg and 114 mmHg
same,PAP(mean),"time 200, Sesquihydrate",24.0 mmHg and 31.5 mmHg and 23.6 mmHg
same,BP (mean),time 210,97 mmHg
same,BP (mean),"time 210, Sesquihydrate",119 mmHg and 112 mmHg
same,PAP(mean),"time 210, Sesquihydrate",24.3 mmHg and 31.0 mmHg and 23.5 mmHg
same,BP (mean),time 220,97 mmHg
same,BP (mean),"time 220, Sesquihydrate",118 mmHg and 111 mmHg
same,PAP(mean),"time 220, Sesquihydrate",24.2 mmHg and 31.3 mmHg and 22.9 mmHg
same,BP (mean),time 230,96 mmHg
same,BP (mean),"time 230, Sesquihydrate",116 mmHg and 112 mmHg
same,PAP(mean),"time 230, Sesquihydrate",24.0 mmHg and 31.5 mmHg and 23.5 mmHg
same,BP (mean),time 240,99 mmHg
same,BP (mean),"time 240, Sesquihydrate",115 mmHg and 109 mmHg
same,PAP(mean),"time 240, Sesquihydrate",24.5 mmHg and 29.8 mmHg and 22.6 mmHg
same,BP (mean),"time 250, Sesquihydrate",97 mmHg and 111 mmHg and 110 mmHg
same,PAP(mean),"time 250, Sesquihydrate",23.9 mmHg and 29.8 mmHg and 22.8 mmHg
same,BP (mean),"time 260, Sesquihydrate",97 mmHg and 110 mmHg and 107 mmHg
same,PAP(mean),"time 260, Sesquihydrate",23.5 mmHg and 30.3 mmHg and 22.0 mmHg
same,BP (mean),time 270,98 mmHg
same,BP (mean),"time 270, Sesquihydrate",109 mmHg and 108 mmHg
same,PAP(mean),"time 270, Sesquihydrate",24.6 mmHg and 30.0 mmHg and 22.2 mmHg
same,BP (mean),time 280,97 mmHg
same,BP (mean),"time 280, Sesquihydrate",109 mmHg and 105 mmHg
same,PAP(mean),"time 280, Sesquihydrate",23.9 mmHg and 29.6 mmHg and 21.9 mmHg
same,BP (mean),time 290,94 mmHg
same,BP (mean),"time 290, Sesquihydrate",108 mmHg and 105 mmHg
same,PAP(mean),"time 290, Sesquihydrate",25.3 mmHg and 29.1 mmHg and 22.5 mmHg
same,BP (mean),time 300,97 mmHg
same,BP (mean),"time 300, Sesquihydrate",108 mmHg and 105 mmHg
same,PAP(mean),"time 300, Sesquihydrate",25.1 mmHg and 28.5 mmHg and 21.6 mmHg
same,BP,"time 50, Sesquihydrate",101.4% and 98.5% and 100.3%
same,PAP,"time 50, Sesquihydrate",98.3% and 96.2% and 101.2%
same,BP,"time 60, Sesquihydrate",102.5% and 100.3% and 99.4%
same,PAP,"time 60, Sesquihydrate",97.2% and 99.6% and 101.1%
same,BP,"time 70, Sesquihydrate",99.4% and 96.0% and 98.6%
same,PAP,"time 70, Sesquihydrate",97.8% and 97.5% and 98.5%
same,BP,"time 80, Sesquihydrate",101.4% and 96.8% and 97.7%
same,PAP,"time 80, Sesquihydrate",87.8% and 94.9% and 87.9%
same,BP,"time 90, Sesquihydrate",101.4% and 98.5% and 96.9%
same,PAP,"time 90, Sesquihydrate",82.5% and 92.0% and 76.6%
same,BP,"time 100, Sesquihydrate",101.4% and 98.5% and 96.9%
same,PAP,"time 100, Sesquihydrate",77.6% and 90.1% and 71.1%
same,BP,"time 110, Sesquihydrate",99.4% and 103.7% and 96.1%
same,PAP,"time 110, Sesquihydrate",74.0% and 88.3% and 68.4%
same,BP,"time 120, Sesquihydrate",99.4% and 104.6% and 96.1%
same,PAP,"time 120, Sesquihydrate",72.8% and 73.1% and 66.2%
same,BP,"time 130, Sesquihydrate",100.4% and 105.5% and 96.1%
same,PAP,"time 130, Sesquihydrate",69.8% and 76.4% and 66.8%
same,BP,"time 140, Sesquihydrate",101.4% and 104.6% and 96.9%
same,PAP,"time 140, Sesquihydrate",67.3% and 71.4% and 62.2%
same,BP,"time 150, Sesquihydrate",99.4% and 102.9% and 96.9%
same,PAP,"time 150, Sesquihydrate",62.1% and 77.7% and 62.8%
same,BP,"time 160, Sesquihydrate",99.4% and 106.3% and 96.1%
same,PAP,"time 160, Sesquihydrate",60.4% and 77.7% and 59.3%
same,BP,"time 170, Sesquihydrate",98.4% and 100.3% and 95.2%
same,PAP,"time 170, Sesquihydrate",61.3% and 77.3% and 61.0%
same,BP,"time 180, Sesquihydrate",99.4% and 101.1% and 97.7%
same,PAP,"time 180, Sesquihydrate",60.0% and 77.6% and 60.1%
same,BP,"time 190, Sesquihydrate",97.4% and 106.3% and 96.1%
same,PAP,"time 190, Sesquihydrate",58.5% (2×) and 83.0%
same,BP,"time 200, Sesquihydrate",97.4% and 102.9% and 96.1%
same,PAP,"time 200, Sesquihydrate",57.6% and 79.4% and 58.5%
same,BP,"time 210, Sesquihydrate",97.4% and 102.9% and 94.4%
same,PAP,"time 210, Sesquihydrate",58.3% (2×) and 78.3%
same,BP,"time 220, Sesquihydrate",97.4% and 102.0% and 93.5%
same,PAP,"time 220, Sesquihydrate",58.3% and 79.0% and 56.8%
same,BP,"time 230, Sesquihydrate",96.4% and 100.3% and 94.4%
same,PAP,"time 230, Sesquihydrate",57.8% and 79.6% and 58.3%
same,BP,"time 240, Sesquihydrate",99.4% (2×) and 91.8%
same,PAP,"time 240, Sesquihydrate",58.9% and 75.3% and 56.1%
same,BP,"time 250, Sesquihydrate",97.4% and 96.0% and 92.7%
same,PAP,"time 250, Sesquihydrate",57.4% and 75.3% and 56.6%
same,BP,"time 260, Sesquihydrate",97.4% and 95.1% and 90.2%
same,PAP,"time 260, Sesquihydrate",56.4% and 76.5% and 54.6%
same,BP,"time 270, Sesquihydrate",98.4% and 94.2% and 91.0%
same,PAP,"time 270, Sesquihydrate",59.1% and 75.7% and 55.2%
same,BP,"time 280, Sesquihydrate",97.4% and 94.2% and 88.5%
same,PAP,"time 280, Sesquihydrate",57.4% and 74.6% and 54.4%
same,BP,"time 290, Sesquihydrate",94.4% and 93.4% and 85.9%
same,PAP,"time 290, Sesquihydrate",60.8% and 73.3% and 55.8%
same,BP,"time 300, Sesquihydrate",101.4% and 90.8% and 84.3%
same,PAP,"time 300, Sesquihydrate",60.3% and 72.0% and 53.7%

# Reference: patent publication US20250281480A1, “PHARMACEUTICAL DRY POWDER INHALATION FORMULATION” (Bayer Aktiengesellschaft, priority 2021, published 2025)
